16 substances from patent US20120035320A1 (University of Iowa Research Foundation, priority 2010, published 2012) can be followed below.

One purity is given for all peptides; the source may state it once. HELM strings list residues between dots; [ac] is acetyl, [am] amide, other brackets name non-standard units.

A short description of this series: general procedure: Fmoc solid-phase peptide synthesis; Wang resin; HBTU/HOBt double coupling (DIC/HOBt for Cys-Trp-Lysn). The note with it: for final LC-MS purity: analytical RP-HPLC with ESI-MS detection (LC-MS).
Where [1] appears, read: whole synthesis, scale of the general procedure 30 μmol.

In turn, “(Acr-Arg)4-Cys (KRKRKRKRC; acridine on Lys side chains)” registered an isolated yield under setting [1] of 30%. The substance (Acr-Glu)4-Cys displayed an isolated yield under setting [1] of 22%.

The substance (Acr-Leu)4-Cys showed an isolated yield under setting [1] of 31%.

As to (Acr-Lys)2-Cys, under setting [1], the isolated yield is on record as 37%.

Under setting [1], (Acr-Lys)4-Cys yielded an isolated yield of 26%. The same measure, in the same setting: in the case of (Acr-Lys)6-Cys it was 20%.

For the substance Cys-(Acr-Lys)4, where the note is “whole synthesis, scale 30 μmol”, the “final LC-MS purity” value is given as over 95% and the isolated yield came out at 17%.

Where the note is “conjugation step”, Man9-L^3-(Acr-Lys)n gave a conjugation yield of 23%. For the same substance, the “final HPLC purity” value (conjugation step, Abs 280 nm) is over 95%.

PEGyalted-Mal-(Acr-Glu)4: the conjugation yield (conjugation step) is reported as 35%.

Turning to PEGyalted-Mal-(Acr-Leu)4, under “conjugation step”, the conjugation yield was found to be 46%. On the same count and under the same terms, in the case of PEGyalted-Mal-(Acr-Lys)6 it was 66%; in that of “PEGyalted-SS-(Acr-Arg)4 (KRKRKRKR; 5 kDa PEG disulfide; acridine-modified residues)”, 44%; in that of PEGylated-Mal-(Acr-Arg)4, 53%. Take PEGylated-Mal-(Acr-Lys)2: the conjugation yield (conjugation step) is reported as 64%. The same measure, in the same setting: in the case of PEGylated-Mal-(Acr-Lys)4 it was 55%. In the case of “PEPTIDE1{[Acr].R.[Acr].R.[Acr].R.[Acr].R.C}|PEPTIDE2{[MalGly].W.K.K.G.I.G.A.V.L.K.V.L.T.T.G.L.P.A.L.I.S.L.I.K.R.K.R.Q.Q}$PEPTIDE1,PEPTIDE2,9:R3-1:R3$$$V2.0”, where the note is “conjugation step”, the conjugation yield is given as 35% and the “final LC-MS purity” value is recorded as over 95%.
